Results are given in words; binding and its absence hold for the method and conditions named. Some results given as binding are weak or reduced against the parent protein; the word gives no strength.
What was measured:
[1] = target: IGF-I (insulin-like growth factor I) (UniProt P05019); test: SPR (BIAcore) on immobilised IGF-I
[2] = target: IGF-I (insulin-like growth factor I) (UniProt P05019); test: SPR (BIAcore), IGF-I coupled to the sensor chip, IGFBP injected in solution, control surface subtracted

Amino acid sequences for entries named in this document (tags omitted). A change or cut given only in a name is not applied to a line headed by its entry. Chains listed by the source or under a name are the forms on record and can include a tag or linker. Residues count along the entry.
UniProt P05019, residues 49-118: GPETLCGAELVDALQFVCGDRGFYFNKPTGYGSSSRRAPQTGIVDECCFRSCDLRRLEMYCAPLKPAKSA
K227AHis hIGFBP-2 (P18065, form named): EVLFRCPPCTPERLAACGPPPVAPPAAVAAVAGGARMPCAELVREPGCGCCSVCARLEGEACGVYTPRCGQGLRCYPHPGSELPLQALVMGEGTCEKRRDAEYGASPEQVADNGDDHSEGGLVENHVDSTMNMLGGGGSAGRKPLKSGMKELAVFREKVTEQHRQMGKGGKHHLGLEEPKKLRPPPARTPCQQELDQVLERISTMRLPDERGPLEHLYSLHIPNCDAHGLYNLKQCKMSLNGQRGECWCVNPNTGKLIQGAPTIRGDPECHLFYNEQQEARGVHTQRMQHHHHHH

binding [1]: binds
binding [2]: binds
Substance: K227AHis hIGFBP-2 (from UniProt P18065 37-325)

Source: US20060153853A1
